Results deposited as PubChem BioAssay AID743454 (Peter MacCallum Cancer Centre, 2014)
Here is one part, drawn at random, of about 18,000 reagents tested. Of all reagents, 450 (2.5%) got an active call. 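Single biological run; no consistent viability z cut-off exists, so the class columns, not z-scores, define the calls.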 Reagents against one gene are numbered here.

- Purpose: 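Search for knock-downs that restore vorinostat killing in resistant colon cancer cells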 (primary screen)
- System: human HCT116-VR colon cancer cells, selected for vorinostat resistance
- Reagent: siRNA pool against human genes, 40 nM siRNA pool
- Time to read-out: vorinostat for 24 h, read-out about 72 h after transfection
- Conditions: vorinostat at 2.5 µM final
- Detection: 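Cell viability by CellTiter-Fluor and caspase 3/7 activity by luminescence, each scaled to mock wells per plate, duplicates averaged, then robust z-scored over all plates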
- Scale: viability robust z-score: higher = more viable cells than screen typical; caspase robust z-score: higher = more caspase 3/7 activity than screen typical
- Hit rule: 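a knock-down is a hit when classed RV1 or RV2 for lowered viability, or CA1 or CA2 for caspase activation; those lethal without drug were dropped; hits were retested singly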

gene,reagent no.,viability hit class,caspase hit class,viability robust z-score,caspase robust z-score,call
"SMN1 (survival of motor neuron 1, telomeric)",1,no change,no change,-1.4,-0.61,inactive
CNTROB,1,no change,no change,-0.89,-0.18,inactive
GOLGA4 (golgin A4),1,no change,no change,0.14,-0.92,inactive
FGFR1OP2 (FGFR1 oncogene partner 2),1,no change,no change,0.93,-0.14,inactive
SELL (selectin L),1,no change,no change,0.35,-0.05,inactive
TMPRSS11A (transmembrane serine protease 11A),1,no change,no change,-0.27,-0.09,inactive
COL9A1 (collagen type IX alpha 1 chain),1,no change,CA2 (caspase activation),-2.61,6.86,active
SCARF1 (scavenger receptor class F member 1),1,no change,no change,-1.55,3.25,inactive
KIR2DL1,1,no change,CA1 (caspase activation),-2.41,7.7,active
SLC22A25,1,no change,no change,0.01,0.99,inactive
BBOX1 (gamma-butyrobetaine hydroxylase 1),1,no change,no change,1.32,-0.17,inactive
ULBP1 (UL16 binding protein 1),1,no change,no change,-1.19,-0.72,inactive
SLC6A13,1,no change,no change,-0.58,-0.15,inactive
SNF8 (SNF8 subunit of ESCRT-II),1,no change,no change,0.66,-0.25,inactive
PYCR1 (pyrroline-5-carboxylate reductase 1),1,no change,no change,0.8,-0.02,inactive
THAP12 (THAP domain containing 12),1,no change,no change,1.06,-0.8,inactive
SP7 (Sp7 transcription factor),1,no change,no change,-2.09,-0.66,inactive
ZBTB4 (zinc finger and BTB domain containing 4),1,no change,no change,0.12,0.38,inactive
KYAT1 (kynurenine aminotransferase 1),1,no change,no change,0.02,2.01,inactive
PDHA2 (pyruvate dehydrogenase E1 subunit alpha 2),1,no change,no change,-0.18,-0.57,inactive
ACTRT2 (actin related protein T2),1,no change,no change,0.54,1.91,inactive
"STUM (stum, mechanosensory transduction mediator homolog)",1,no change,no change,-0.11,0.66,inactive
HPR (haptoglobin-related protein),1,no change,no change,-0.7,0.48,inactive
PLEKHO1 (pleckstrin homology domain containing O1),1,no change,no change,0.44,0.9,inactive
NKX3-1 (NK3 homeobox 1),1,no change,no change,0.96,-0.16,inactive
MAGEC1 (MAGE family member C1),1,no change,no change,-1.04,1.3,inactive
"ERCC4 (ERCC excision repair 4, endonuclease catalytic subunit)",1,no change,no change,0.56,-0.55,inactive
CD74 (CD74 molecule),1,no change,no change,0.18,2.21,inactive
TTC3 (tetratricopeptide repeat domain 3),1,no change,no change,0.33,3.34,inactive
ZFPL1 (zinc finger protein like 1),1,no change,no change,-0.14,-0.17,inactive
SENP5 (SUMO specific peptidase 5),1,no change,no change,0.22,-0.44,inactive
ST14 (ST14 transmembrane serine protease matriptase),1,no change,no change,0.02,1.29,inactive
PODNL1 (podocan like 1),1,no change,no change,-1.6,2.49,inactive
"HLA-DOA (major histocompatibility complex, class II, DO alpha)",1,no change,no change,0.71,-1.15,inactive
MROH7 (maestro heat like repeat family member 7),1,no change,no change,-0.37,-0.4,inactive
CST3 (cystatin C),1,no change,no change,0.54,0.28,inactive
HAGHL (hydroxyacylglutathione hydrolase like),1,no change,no change,-0.04,1.17,inactive
FAM47C (family with sequence similarity 47 member C),1,no change,no change,0.84,0.24,inactive
UBE2Z (ubiquitin conjugating enzyme E2 Z),1,no change,no change,-0.55,-0.12,inactive
NME9 (NME/NM23 family member 9),1,no change,no change,-0.88,0.18,inactive
OLIG2 (oligodendrocyte transcription factor 2),1,no change,no change,-1.43,1.01,inactive
COL28A1 (collagen type XXVIII alpha 1 chain),1,no change,no change,1.86,0.74,inactive
DIAPH1 (diaphanous related formin 1),1,no change,no change,1.46,0.28,inactive
GFOD1 (Gfo/Idh/MocA-like oxidoreductase domain containing 1),1,no change,no change,0.22,0.95,inactive
GFOD1 (Gfo/Idh/MocA-like oxidoreductase domain containing 1),2,no change,no change,0.1,-1.27,inactive
MYADM (myeloid associated differentiation marker),1,no change,no change,-0.08,-0.73,inactive
CHIT1 (chitinase 1),1,no change,no change,0.24,0.4,inactive
FRA10AC1 (FRA10A associated CGG repeat 1),1,no change,no change,1,2.41,inactive
CMTR2 (cap methyltransferase 2),1,no change,no change,0.44,-0.67,inactive
SSR1 (signal sequence receptor subunit 1),1,no change,no change,0.72,-0.11,inactive
BEND5 (BEN domain containing 5),1,no change,no change,-0.25,-0.68,inactive
CNTN2 (contactin 2),1,no change,no change,-2.86,0.75,inactive
TRIM21 (tripartite motif containing 21),1,no change,no change,0.07,-0.68,inactive
ISLR2 (immunoglobulin superfamily containing leucine rich repeat 2),1,no change,no change,1.16,0.51,inactive
NTRK1 (neurotrophic receptor tyrosine kinase 1),1,no change,no change,-1.94,0.24,inactive
CLSPN (claspin),1,no change,no change,-0.8,-0.24,inactive
EBP (EBP cholestenol delta-isomerase),1,no change,no change,-0.42,0.48,inactive

Reformatted: 7 of the entries above.
BBOX1 (gamma-butyrobetaine hydroxylase 1)
- viability hit class: no change
- caspase hit class: no change
- viability robust z-score: 1.32
- caspase robust z-score: -0.17
- call: inactive

ULBP1 (UL16 binding protein 1)
- viability hit class: no change
- caspase hit class: no change
- viability robust z-score: -1.19
- caspase robust z-score: -0.72
- call: inactive

SLC6A13
- viability hit class: no change
- caspase hit class: no change
- viability robust z-score: -0.58
- caspase robust z-score: -0.15
- call: inactive

SNF8 (SNF8 subunit of ESCRT-II)
- viability hit class: no change
- caspase hit class: no change
- viability robust z-score: 0.66
- caspase robust z-score: -0.25
- call: inactive

PYCR1 (pyrroline-5-carboxylate reductase 1)
- viability hit class: no change
- caspase hit class: no change
- viability robust z-score: 0.8
- caspase robust z-score: -0.02
- call: inactive

THAP12 (THAP domain containing 12)
- viability hit class: no change
- caspase hit class: no change
- viability robust z-score: 1.06
- caspase robust z-score: -0.8
- call: inactive

SP7 (Sp7 transcription factor)
- viability hit class: no change
- caspase hit class: no change
- viability robust z-score: -2.09
- caspase robust z-score: -0.66
- call: inactive
